# Some of the results follow.
# Legend:
# Assay in all cases: glycan array binding signal (z-score within array); higher = stronger binding
# Conditions in all cases: glycan notation: IUPAC condensed, linker removed
# [1] = target: Neu5Ac(a2-3)Gal(b1-4)GlcNAc(b1-6)GalNAc
# Summary of the method: (§1)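 Glycan array binding is given as a within-array Z-score, which can be read as non-binding when negative. The arrays, 3228 of them, came from the Consortium for Functional Glycomics database and were retained only where the protein sequence was available. Z-scores were averaged across arrays of the same protein sequence at different concentrations or buffers and across linkers.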
# [2] = target: Neu5Ac(a2-3)Gal(b1-4)GlcNAc(b1-6)[Gal(b1-3)]GalNAc
# Summary of the method: as §1
# [3] = target: Neu5Ac(a2-3)Gal(b1-4)GlcNAc(b1-6)[Neu5Ac(a2-3)Gal(b1-3)]GalNAc
# Summary of the method: as §1
# [4] = target: Neu5Ac(a2-3)Gal(b1-4)GlcNAc6S
# Summary of the method: as §1
# [5] = target: Neu5Ac(a2-3)Gal(b1-4)[Fuc(a1-3)]GlcNAc
# Summary of the method: as §1
# [6] = target: Neu5Ac(a2-3)Gal(b1-4)[Fuc(a1-3)]GlcNAc(b1-3)Gal
# Summary of the method: as §1
# [7] = target: Neu5Ac(a2-3)Gal(b1-4)[Fuc(a1-3)]GlcNAc(b1-3)Gal(b1-4)GlcNAc
# Summary of the method: as §1
# [8] = target: Neu5Ac(a2-3)Gal(b1-4)[Fuc(a1-3)]GlcNAc(b1-3)Gal(b1-4)[Fuc(a1-3)]GlcNAc(b1-3)Gal(b1-4)[Fuc(a1-3)]GlcNAc
# Summary of the method: as §1
# [9] = target: Neu5Ac(a2-3)Gal(b1-4)[Fuc(a1-3)]GlcNAc(b1-3)GalNAc
# Summary of the method: as §1
# [10] = target: Neu5Ac(a2-3)Gal(b1-4)[Fuc(a1-3)]GlcNAc(b1-6)[Gal(b1-3)]GalNAc
# Summary of the method: as §1
# [11] = target: Neu5Ac(a2-3)Gal(b1-4)[Fuc(a1-3)]GlcNAc6S
# Summary of the method: as §1
# [12] = target: Neu5Ac(a2-3)Gal6S(b1-4)GlcNAc
# Summary of the method: as §1
# [13] = target: Neu5Ac(a2-3)Gal6S(b1-4)[Fuc(a1-3)]GlcNAc
# Summary of the method: as §1
# Neu5Ac(a2-3)GalNAc = target: Neu5Ac(a2-3)GalNAc
# Summary of the method: as §1
# [14] = target: Neu5Ac(a2-3)GalNAc(b1-4)GlcNAc
# Summary of the method: as §1
# [15] = target: Neu5Ac(a2-3)[GalNAc(b1-4)]Gal(b1-4)Glc
# Summary of the method: as §1
# [16] = target: Neu5Ac(a2-3)[GalNAc(b1-4)]Gal(b1-4)GlcNAc
# Summary of the method: as §1
# [17] = target: Neu5Ac(a2-3)[GalNAc(b1-4)]Gal(b1-4)GlcNAc(b1-3)GalNAc
# Summary of the method: as §1
# [18] = target: Neu5Ac(a2-3)[Neu5Ac(a2-6)]GalNAc
# Summary of the method: as §1
# Neu5Ac(a2-6)Gal = target: Neu5Ac(a2-6)Gal
# Summary of the method: as §1
# [19] = target: Neu5Ac(a2-6)Gal(b1-3)GlcNAc(b1-3)[Gal(b1-4)GlcNAc(b1-6)]Gal(b1-4)Glc
# Summary of the method: as §1
# Neu5Ac(a2-6)Gal(b1-4)Glc = target: Neu5Ac(a2-6)Gal(b1-4)Glc
# Summary of the method: as §1
# [20] = target: Neu5Ac(a2-6)Gal(b1-4)GlcNAc
# Summary of the method: as §1
# [21] = target: Neu5Ac(a2-6)Gal(b1-4)GlcNAc(b1-2)Man(a1-3)Man(b1-4)GlcNAc(b1-4)GlcNAc
# Summary of the method: as §1
# [22] = target: Neu5Ac(a2-6)Gal(b1-4)GlcNAc(b1-2)Man(a1-3)[Gal(b1-4)GlcNAc(b1-2)Man(a1-6)]Man(b1-4)GlcNAc(b1-4)GlcNAc
# Summary of the method: as §1
# [23] = target: Neu5Ac(a2-6)Gal(b1-4)GlcNAc(b1-2)Man(a1-3)[GlcNAc(b1-2)Man(a1-6)]Man(b1-4)GlcNAc(b1-4)GlcNAc
# Summary of the method: as §1
# [24] = target: Neu5Ac(a2-6)Gal(b1-4)GlcNAc(b1-2)Man(a1-3)[GlcNAc(b1-2)Man(b1-4)GlcNAc(b1-2)Man(a1-6)]Man(b1-4)GlcNAc(b1-4)GlcNAc
# Summary of the method: as §1
# [25] = target: Neu5Ac(a2-6)Gal(b1-4)GlcNAc(b1-2)Man(a1-3)[Man(a1-6)]Man(b1-4)GlcNAc(b1-4)GlcNAc
# Summary of the method: as §1
# [26] = target: Neu5Ac(a2-6)Gal(b1-4)GlcNAc(b1-2)Man(a1-3)[Neu5Ac(a2-6)Gal(b1-4)GlcNAc(b1-2)Man(a1-6)]Man(b1-4)GlcNAc(b1-4)GlcNAc
# Summary of the method: as §1
# [27] = target: Neu5Ac(a2-6)Gal(b1-4)GlcNAc(b1-2)Man(a1-3)[Neu5Ac(a2-6)Gal(b1-4)GlcNAc(b1-2)Man(a1-6)]Man(b1-4)GlcNAc(b1-4)[Fuc(a1-6)]GlcNAc
# Summary of the method: as §1
# [28] = target: Neu5Ac(a2-6)Gal(b1-4)GlcNAc(b1-2)Man(a1-6)Man(b1-4)GlcNAc(b1-4)GlcNAc
# Summary of the method: as §1
# [29] = target: Neu5Ac(a2-6)Gal(b1-4)GlcNAc(b1-2)Man(a1-6)[Gal(b1-4)GlcNAc(b1-2)Man(a1-3)]Man(b1-4)GlcNAc(b1-4)GlcNAc
# Summary of the method: as §1
# [30] = target: Neu5Ac(a2-6)Gal(b1-4)GlcNAc(b1-2)Man(a1-6)[GlcNAc(b1-2)Man(a1-3)]Man(b1-4)GlcNAc(b1-4)GlcNAc
# Summary of the method: as §1
# [31] = target: Neu5Ac(a2-6)Gal(b1-4)GlcNAc(b1-2)Man(a1-6)[Man(a1-3)]Man(b1-4)GlcNAc(b1-4)GlcNAc
# Summary of the method: as §1
# [32] = target: Neu5Ac(a2-6)Gal(b1-4)GlcNAc(b1-3)Gal(b1-3)GlcNAc
# Summary of the method: as §1
# [33] = target: Neu5Ac(a2-6)Gal(b1-4)GlcNAc(b1-3)Gal(b1-4)GlcNAc
# Summary of the method: as §1
# [34] = target: Neu5Ac(a2-6)Gal(b1-4)GlcNAc(b1-3)Gal(b1-4)GlcNAc(b1-3)Gal(b1-4)GlcNAc
# Summary of the method: as §1
# [35] = target: Neu5Ac(a2-6)Gal(b1-4)GlcNAc(b1-3)Gal(b1-4)[Fuc(a1-3)]GlcNAc(b1-3)Gal(b1-4)[Fuc(a1-3)]GlcNAc
# Summary of the method: as §1
# [36] = target: Neu5Ac(a2-6)Gal(b1-4)GlcNAc(b1-3)GalNAc
# Summary of the method: as §1
# [37] = target: Neu5Ac(a2-6)Gal(b1-4)GlcNAc(b1-3)[Neu5Ac(a2-6)Gal(b1-4)GlcNAc(b1-6)]GalNAc
# Summary of the method: as §1
# [38] = target: Neu5Ac(a2-6)Gal(b1-4)GlcNAc(b1-6)GalNAc
# Summary of the method: as §1
# [39] = target: Neu5Ac(a2-6)Gal(b1-4)GlcNAc(b1-6)[Gal(b1-3)GlcNAc(b1-3)]Gal(b1-4)Glc
# Summary of the method: as §1
# [40] = target: Neu5Ac(a2-6)Gal(b1-4)GlcNAc6S
# Summary of the method: as §1
# Neu5Ac(a2-6)GalNAc = target: Neu5Ac(a2-6)GalNAc
# Summary of the method: as §1
# [41] = target: Neu5Ac(a2-6)GalNAc(b1-4)GlcNAc
# Summary of the method: as §1
binder,measurement,setting,value
"Latrophilin-3 (Homo sapiens), Q9HAR2 (protein) MWPSQLLIFMMLLAPIIHAFSRAPIPMAVVRRELSCESYPIELRCPGTDVIMIESANYGRTDDKICDSDPAQMENIRCYLPDAYKIMSQRCNNRTQCAVVAGPDVFPDPCPGTYKYLEVQYECVPYKVEQKVFLCPGLLKGVYQSEHLFESDHQSGAWCKDPLQASDKIYYMPWTPYRTDTLTEYSSKDDFIAGRPTTTYKLPHRVDGTGFVVYDGALFFNKERTRNIVKFDLRTRIKSGEAIIANANYHDTSPYRWGGKSDIDLAVDENGLWVIYATEQNNGKIVISQLNPYTLRIEGTWDTAYDKRSASNAFMICGILYVVKSVYEDDDNEATGNKIDYIYNTDQSKDSLVDVPFPNSYQYIAAVDYNPRDNLLYVWNNYHVVKYSLDFGPLDSRSGQAHHGQVSYISPPIHLDSELERPSVKDISTTGPLGMGSTTTSTTLRTTTLSPGRSTTPSVSGRRNRSTSTPSPAVEVLDDMTTHLPSASSQIPALEESCEAVEAREIMWFKTRQGQIAKQPCPAGTIGVSTYLCLAPDGIWDPQGPDLSNCSSPWVNHITQKLKSGETAANIARELAEQTRNHLNAGDITYSVRAMDQLVGLLDVQLRNLTPGGKDSAARSLNKAMVETVNNLLQPQALNAWRDLTTSDQLRAATMLLHTVEESAFVLADNLLKTDIVRENTDNIKLEVARLSTEGNLEDLKFPENMGHGSTIQLSANTLKQNGRNGEIRVAFVLYNNLGPYLSTENASMKLGTEALSTNHSVIVNSPVITAAINKEFSNKVYLADPVVFTVKHIKQSEENFNPNCSFWSYSKRTMTGYWSTQGCRLLTTNKTHTTCSCNHLTNFAVLMAHVEVKHSDAVHDLLLDVITWVGILLSLVCLLICIFTFCFFRGLQSDRNTIHKNLCISLFVAELLFLIGINRTDQPIACAVFAALLHFFFLAAFTWMFLEGVQLYIMLVEVFESEHSRRKYFYLVGYGMPALIVAVSAAVDYRSYGTDKVCWLRLDTYFIWSFIGPATLIIMLNVIFLGIALYKMFHHTAILKPESGCLDNIKSWVIGAIALLCLLGLTWAFGLMYINESTVIMAYLFTIFNSLQGMFIFIFHCVLQKKVRKEYGKCLRTHCCSGKSTESSIGSGKTSGSRTPGRYSTGSQSRIRRMWNDTVRKQSESSFITGDINSSASLNREGLLNNARDTSVMDTLPLNGNHGNSYSIASGEYLSNCVQIIDRGYNHNETALEKKILKELTSNYIPSYLNNHERSSEQNRNLMNKLVNNLGSGREDDAIVLDDATSFNHEESLGLELIHEESDAPLLPPRVYSTENHQPHHYTRRRIPQDHSESFFPLLTNEHTEDLQSPHRDSLYTSMPTLAGVAATESVTTSTQTEPPPAKCGDAEDVYYKSMPNLGSRNHVHQLHTYYQLGRGSSDGFIVPPNKDGTPPEGSSKGPAHLVTSL",glycan array binding signal (z-score),[1],-0.85
same,glycan array binding signal (z-score),[2],-0.293
same,glycan array binding signal (z-score),[3],-0.146
same,glycan array binding signal (z-score),[4],-0.064
same,glycan array binding signal (z-score),[5],-0.152
same,glycan array binding signal (z-score),[6],1.17
same,glycan array binding signal (z-score),[7],0.683
same,glycan array binding signal (z-score),[8],0.41
same,glycan array binding signal (z-score),[9],3.18
same,glycan array binding signal (z-score),[10],2.03
same,glycan array binding signal (z-score),[11],0.396
same,glycan array binding signal (z-score),[12],0.048
same,glycan array binding signal (z-score),[13],-0.975
same,glycan array binding signal (z-score),Neu5Ac(a2-3)GalNAc,-1.32
same,glycan array binding signal (z-score),[14],-0.972
same,glycan array binding signal (z-score),[15],0.355
same,glycan array binding signal (z-score),[16],-0.406
same,glycan array binding signal (z-score),[17],-0.886
same,glycan array binding signal (z-score),[18],-1.4
same,glycan array binding signal (z-score),Neu5Ac(a2-6)Gal,-0.216
same,glycan array binding signal (z-score),[19],-0.989
same,glycan array binding signal (z-score),Neu5Ac(a2-6)Gal(b1-4)Glc,1.15
same,glycan array binding signal (z-score),[20],-0.124
same,glycan array binding signal (z-score),[21],-0.74
same,glycan array binding signal (z-score),[22],-1.06
same,glycan array binding signal (z-score),[23],-1.62
same,glycan array binding signal (z-score),[24],-0.156
same,glycan array binding signal (z-score),[25],1.52
same,glycan array binding signal (z-score),[26],-0.161
same,glycan array binding signal (z-score),[27],-0.459
same,glycan array binding signal (z-score),[28],0.421
same,glycan array binding signal (z-score),[29],-0.625
same,glycan array binding signal (z-score),[30],-0.033
same,glycan array binding signal (z-score),[31],-0.818
same,glycan array binding signal (z-score),[32],0.013
same,glycan array binding signal (z-score),[33],-0.412
same,glycan array binding signal (z-score),[34],-1.29
same,glycan array binding signal (z-score),[35],2.21
same,glycan array binding signal (z-score),[36],-0.672
same,glycan array binding signal (z-score),[37],0.177
same,glycan array binding signal (z-score),[38],-0.06
same,glycan array binding signal (z-score),[39],0.853
same,glycan array binding signal (z-score),[40],-0.062
same,glycan array binding signal (z-score),Neu5Ac(a2-6)GalNAc,-0.233
same,glycan array binding signal (z-score),[41],0.53

# From the supplement of paper PMC8728848
